In PubChem BioAssay AID1671190 (National Center for Advancing Translational Sciences (NCATS), 2021):
Hit rate of the full screen: of about 580,000 compounds, about 6,100 (1.1%) were called active. This list was built around the results that the source calls inconclusive (neither active nor inactive); the mix of calls is not that of the screen. Calls come from the whole dose curve; as a rule, active = well fitted inhibition curve with a large enough effect; inconclusive = small, poorly fitted or top-dose-only effect, or another doubt; inactive = no such curve, though single readings can be large or run the other way. Potencies beside an inconclusive call are fits to weak or partial responses and may not hold up.

By UniProt entry, the sequences of proteins in these tests, tags left out. Where a name states a change or a piece, a line headed by the entry shows the natural chain unless it says otherwise.
UniProt P18054: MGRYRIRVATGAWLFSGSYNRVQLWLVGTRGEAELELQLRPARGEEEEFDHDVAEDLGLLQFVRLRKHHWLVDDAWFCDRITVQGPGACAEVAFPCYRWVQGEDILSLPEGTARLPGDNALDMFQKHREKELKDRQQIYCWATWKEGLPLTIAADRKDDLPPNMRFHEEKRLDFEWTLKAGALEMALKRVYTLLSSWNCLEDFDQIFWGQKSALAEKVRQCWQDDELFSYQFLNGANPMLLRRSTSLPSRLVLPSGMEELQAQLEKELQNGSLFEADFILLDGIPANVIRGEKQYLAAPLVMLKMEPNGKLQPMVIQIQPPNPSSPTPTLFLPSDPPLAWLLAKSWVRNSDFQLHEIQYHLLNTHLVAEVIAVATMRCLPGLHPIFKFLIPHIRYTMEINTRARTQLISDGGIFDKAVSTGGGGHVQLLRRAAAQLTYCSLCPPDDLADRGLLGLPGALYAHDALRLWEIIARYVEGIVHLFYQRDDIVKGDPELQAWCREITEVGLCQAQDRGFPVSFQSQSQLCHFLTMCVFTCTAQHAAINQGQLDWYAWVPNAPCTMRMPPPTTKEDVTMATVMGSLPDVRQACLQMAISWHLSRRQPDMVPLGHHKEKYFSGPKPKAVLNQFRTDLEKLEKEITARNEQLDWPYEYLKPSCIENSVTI

target: Polyunsaturated fatty acid lipoxygenase ALOX12 (Homo sapiens) (UniProt P18054); assay: Primary qHTS assay for inhibitors of human arachidonate 12S-lipoxygenase (ALOX12): Round 2; settings: purified 12hLO, xylenol orange hydroperoxide absorbance; series mostly up to 108 µM
In short: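 Hydroperoxide product was detected by ferrous iron/xylenol orange as the 573 to 405 nm absorbance ratio. Arachidonic acid at 40 uM (final) was turned over for 30 min at room temperature by 150 nM human 12hLO, pH 7.0 Hepes buffer, after 15 min compound preincubation.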
Potency is the fitted concentration of half-maximal effect.

Compound	Potency
Cc1ccc(OCCSc2nc3ccccc3n2CC(=O)N2CCOCC2)cc1C	inactive
COc1ccc(/C=N/n2cnnc2SCc2ccccc2)cc1	inactive
N#CCOc1ccc(COc2cccc(C#N)c2)cc1	inconclusive: 126 µM [inhibitor, single point]
CN(C)C1=NCCN1CCc1ccccc1	inconclusive: 31.6 µM [inhibitor, single point]
Cc1ccc2[nH]c(C)c(CC(=O)NC(C)c3ccncc3)c2c1 (stereo unspecified)	inconclusive: 39.8 µM [inhibitor, full curve, poor fit]
CN(Cc1ccccc1)C(=O)c1c[nH]c2ccc(S(=O)(=O)Nc3ccccc3F)cc2c1=O	inconclusive: 63.1 µM [inhibitor, partial curve, poor fit]
CCCn1nc(S(=O)(=O)N2CCCCC2)c(C(=O)OCC)c1C	active: 6.31 µM
COc1ccc(NS(=O)(=O)c2cc(NC(=O)c3ccc(C)o3)ccc2N2CCCCC2)cc1	inactive
Cc1nc(NC(=O)C2c3ccccc3C(=O)N(C3CCCC3)C23CCCC3)sc1C (stereo unspecified)	inactive
O=C(Nc1ccccc1)Nc1ccc(NC(=O)c2ccccc2O)cc1	inactive
N#Cc1nc(-c2ccccc2)oc1N1CCN(C(=O)c2ccccc2F)CC1	inactive
COc1cc(=O)[nH]c(SCC(=O)Nc2nc3c(s2)CCCC3)n1	inactive
CC(=O)c1ccc(OCC(O)CN2CCCN(c3ccc(C(F)(F)F)cn3)CC2)cc1 (stereo unspecified)	inconclusive: 100 µM [inhibitor, partial curve, poor fit]
CCc1ccc(-c2nc(SC(C(=O)N(C)C)c3ccccc3)n[nH]2)cc1 (stereo unspecified)	inactive
Cc1ccc(S(=O)(=O)N2CCCN(C(C)c3nc4ccccc4c(=O)[nH]3)CC2)cc1 (stereo unspecified)	inactive
CC(C)CN1C(=O)c2cccn2CC1C(=O)NCC1CC1 (stereo unspecified)	inactive
Cc1cc(C(=O)N2CCC3(CC2)N=C(CC(C)C)NC3=O)c(C)o1	inactive
Clc1ccccc1C1(c2ccnc(NCCn3cccn3)n2)CCNCC1	inconclusive: 10 µM [inhibitor, full curve, poor fit]
O=C(Nc1nc(-c2cc(F)ccc2F)cs1)C1=NN(c2ccccc2)C(=O)CC1	inconclusive: 112 µM [inhibitor, single point]
COCCN(Cc1cn(C)nc1-c1ccc(Oc2ccccc2)cc1)C(C)C	inconclusive: 79.4 µM [inhibitor, partial curve, poor fit]
Nc1c(Cl)cc(-c2[nH]c3cc(C(=O)NCCO)ccc3c(=O)c2O)cc1Cl	inconclusive: 50.1 µM [inhibitor, partial curve, poor fit]
O=C(CC(=O)c1ccccc1)Nc1ccccn1	inconclusive: 35.5 µM [inhibitor, single point]
CC(=O)NN1C(=O)/C(=C/c2ccc(Br)o2)SC1=S	inconclusive: 44.7 µM [inhibitor, partial curve, poor fit]
O=C(O)/C=C/C(=O)Nc1ccc(C2(c3ccc(NC(=O)/C=C/C(=O)O)cc3)c3ccccc3-c3ccccc32)cc1	inconclusive: 39.8 µM [inhibitor, partial curve]

Compound	Potency
Cc1ccc(C(c2c(C)n(C)n(-c3ccccc3)c2=O)c2c(C)n(C)n(-c3ccccc3)c2=O)s1	inactive
COCCOC(=O)C1=C(C)NC(=S)NC1/C=C/c1ccccc1 (stereo unspecified)	inconclusive: 44.7 µM [inhibitor, partial curve, poor fit]
CNc1c(NC(=O)Nc2ccc(F)cc2)c(=O)oc2ccccc12	active: 10 µM
COc1ccc(-c2nc(C(=O)N3CCCCCC3)nn2-c2cccc(Cl)c2)cc1	inactive
O=C1Nc2ccccc2C12CCN(Cc1ccc(F)cc1)C2 (stereo unspecified)	inconclusive: 112 µM [inhibitor, single point]
FC(F)(F)c1ccccc1-n1c(CN2CCCCC2)n[nH]c1=S	inconclusive: 100 µM [inhibitor, partial curve, poor fit]
COc1ccc(C(=O)N2CCc3ccc(C(=O)NCc4cccc(OC)c4)cc32)cc1	inactive
COc1ccc(N2CC(c3nc(-c4ccccc4C)no3)CC2=O)cc1Cl (stereo unspecified)	inconclusive: 63.1 µM [inhibitor, partial curve, poor fit]
O=C(NC(=S)Nc1ccc(S(=O)(=O)Nc2ncccn2)cc1)c1cccc(Br)c1	active: 20 µM
C=CCNC(=S)NN=C1CCC(CCC)CC1 (stereo unspecified)	inconclusive: 3.16 µM [inhibitor, full curve, poor fit]
O=C(/C=C/c1ccccc1O)c1ccc(Cl)cc1	inconclusive: 70.8 µM [inhibitor, partial curve, poor fit]
CN(C)c1ccc(NC(=S)c2ccccn2)cc1	inconclusive: 11.2 µM [inhibitor, full curve, poor fit]
O=C1[C@H]2[C@@H](c3ccc(C(F)(F)F)cc3)N[C@]3(CCCN(Cc4ccc(Cl)cc4)C3=O)[C@H]2C(=O)N1Cc1ccccc1	inconclusive: 50.1 µM [inhibitor, partial curve, poor fit]
COCCCNC(=O)CSc1ccccc1C	inactive
Oc1cccc(CN2CCOCC2)c1O	inconclusive: 5.62 µM [inhibitor, full curve, poor fit]
COc1ccc(-c2sc3ccc(N4CCOCC4)cc3c2C#CCO)cc1	active: 20 µM
Fc1ccc(CN2CCN(c3ncccn3)CC2)cc1	inconclusive: 0.224 µM [inhibitor, full curve, poor fit]
CC1=CC(=O)C=C(C)C1=NOc1ccc([N+](=O)[O-])cc1	inconclusive: 70.8 µM [inhibitor, single point]
O=C(N/C(=C/c1ccc(F)cc1)C(=O)N1CCOCC1)c1ccccc1	inactive
O=c1cc(O)c2c(=O)n(-c3ccccc3)c3c(c2o1)CCCCC3	inconclusive: 2 µM [inhibitor, full curve, poor fit]
COc1ccc(C)cc1N(CC(N)=O)S(=O)(=O)c1ccc(C)cc1	inconclusive: 100 µM [inhibitor, partial curve, poor fit]
S=c1[nH]c(-c2ccc(Br)cc2)cn1CCc1ccccc1	inactive
CCC1=Nc2cc(C(=O)N3CCC(C)CC3)ccc2Sc2ccc(C)cc21	inactive

Compound	Potency
O=S(=O)(NCc1ccco1)c1ccc(S(=O)(=O)N2CCCCC2)cc1	inactive
CCOC(=O)C1=C(C)OC(N)=C(C#N)C1c1cc(OC)c2c(c1)OCO2 (stereo unspecified)	inconclusive: 35.5 µM [inhibitor, partial curve, poor fit]
CC(C)n1nc(OC(C)(C)C(=O)NC2CCOCC2)c2cc(CN3CCOCC3)ccc21	inactive
O=C1SC(c2ccccc2)=N/C1=C/c1ccco1	inconclusive: 44.7 µM [inhibitor, partial curve, poor fit]
COC(=O)c1cn(-c2ccccc2)nc1C(=O)OC	inactive
COc1ccc(N2C(=O)CN(Cc3ccccc3Cl)[C@H]3CS(=O)(=O)C[C@H]32)cc1	inconclusive: 0.282 µM [inhibitor, full curve, poor fit]
O=C(Cc1ccc(Cl)cc1)N1CCN(c2ccccc2)CC1	inconclusive: 100 µM [inhibitor, partial curve, poor fit]
CN1C(=O)C(O)(C2COC(C)(C)CC2=O)c2ccccc21 (stereo unspecified)	inactive
CN1CCN(c2ncc3nc(-c4cccc(C#N)c4)c(=O)n(CCC#N)c3n2)CC1	inconclusive: 35.5 µM [inhibitor, single point]
CN(C)c1ccc(/C=N/n2cnn(Cc3ccccc3Cl)c2=S)cc1	inconclusive: 100 µM [inhibitor, single point]
O=c1n(-c2cccc(Cl)c2)nc2n1CCN(Cc1ccccc1)C2	inconclusive: 7.94 µM [inhibitor, full curve, poor fit]
COc1ccc(COC(=O)C2=C(C)NC(=O)NC2c2ccccc2F)cc1 (stereo unspecified)	inconclusive: 50.1 µM [inhibitor, partial curve, poor fit]
N#Cc1cnn2c(C(F)F)cc(-c3ccccc3)nc12	inactive
Cn1c(=O)c(Nc2ccc(Cl)cc2)c2c3c(cccc31)C(=O)c1ccccc1-2	inconclusive: 17.8 µM [inhibitor, partial curve, poor fit]
Cc1ccccc1OCC(=O)N/N=C/c1ccncc1	inactive
CC1(C(=O)OCC(=O)NC(=O)c2ccccc2)CC1(Cl)Cl (stereo unspecified)	inconclusive: 35.5 µM [inhibitor, single point]
CC(=O)OCC1=C(C(=O)O)N2C(=O)C(NC(=O)COc3ccc(F)cc3)C2SC1 (stereo unspecified)	inconclusive: 39.8 µM [inhibitor, partial curve, poor fit]
COc1cc(OC)cc(C(=O)NC(=S)Nc2ccc3[nH]c(=O)[nH]c3c2)c1	inconclusive: 79.4 µM [inhibitor, partial curve, poor fit]
CN1[C@@H](CCC(=O)N2CCN(c3ccccn3)CC2)CNC(=O)[C@H]2NCC[C@H]21	inconclusive: 20 µM [inhibitor, partial curve, poor fit]
Cc1cccc(Oc2nc(-c3ccncc3)nc3ccccc23)c1	inconclusive: 112 µM [inhibitor, partial curve, poor fit]
Cc1cc(C)c(NC(=O)CSCc2c(C)noc2C)c(Cl)c1	inactive
CC(=O)N1CCc2cc(C(=O)CN3CCC(C)CC3)ccc21	inactive
Nc1ccccc1-n1ccnc1	inconclusive: 4.47 µM [inhibitor, full curve, poor fit]

An excerpt of these results, in markdown:

| Compound | Potency |
| --- | --- |
| O=C(Cc1ccc(Cl)cc1)N1CCN(c2ccccc2)CC1 | inconclusive: 100 µM [inhibitor, partial curve, poor fit] |
| CN1C(=O)C(O)(C2COC(C)(C)CC2=O)c2ccccc21 (stereo unspecified) | inactive |
| CN1CCN(c2ncc3nc(-c4cccc(C#N)c4)c(=O)n(CCC#N)c3n2)CC1 | inconclusive: 35.5 µM [inhibitor, single point] |
| CN(C)c1ccc(/C=N/n2cnn(Cc3ccccc3Cl)c2=S)cc1 | inconclusive: 100 µM [inhibitor, single point] |
| O=c1n(-c2cccc(Cl)c2)nc2n1CCN(Cc1ccccc1)C2 | inconclusive: 7.94 µM [inhibitor, full curve, poor fit] |
| COc1ccc(COC(=O)C2=C(C)NC(=O)NC2c2ccccc2F)cc1 (stereo unspecified) | inconclusive: 50.1 µM [inhibitor, partial curve, poor fit] |
| N#Cc1cnn2c(C(F)F)cc(-c3ccccc3)nc12 | inactive |
| Cn1c(=O)c(Nc2ccc(Cl)cc2)c2c3c(cccc31)C(=O)c1ccccc1-2 | inconclusive: 17.8 µM [inhibitor, partial curve, poor fit] |
| Cc1ccccc1OCC(=O)N/N=C/c1ccncc1 | inactive |
| CC1(C(=O)OCC(=O)NC(=O)c2ccccc2)CC1(Cl)Cl (stereo unspecified) | inconclusive: 35.5 µM [inhibitor, single point] |
| CC(=O)OCC1=C(C(=O)O)N2C(=O)C(NC(=O)COc3ccc(F)cc3)C2SC1 (stereo unspecified) | inconclusive: 39.8 µM [inhibitor, partial curve, poor fit] |
| COc1cc(OC)cc(C(=O)NC(=S)Nc2ccc3[nH]c(=O)[nH]c3c2)c1 | inconclusive: 79.4 µM [inhibitor, partial curve, poor fit] |
| CN1[C@@H](CCC(=O)N2CCN(c3ccccn3)CC2)CNC(=O)[C@H]2NCC[C@H]21 | inconclusive: 20 µM [inhibitor, partial curve, poor fit] |
| Cc1cccc(Oc2nc(-c3ccncc3)nc3ccccc23)c1 | inconclusive: 112 µM [inhibitor, partial curve, poor fit] |
| Cc1cc(C)c(NC(=O)CSCc2c(C)noc2C)c(Cl)c1 | inactive |
| CC(=O)N1CCc2cc(C(=O)CN3CCC(C)CC3)ccc21 | inactive |
